Here are results for 3 molecules from publication PMC9266683.

Chains of the proteins cited; added tags and fusions are not shown. Lines headed by an entry give the natural chain unless they say otherwise; changes in a name come on top. Residues count along the entry.
UniProt O48686: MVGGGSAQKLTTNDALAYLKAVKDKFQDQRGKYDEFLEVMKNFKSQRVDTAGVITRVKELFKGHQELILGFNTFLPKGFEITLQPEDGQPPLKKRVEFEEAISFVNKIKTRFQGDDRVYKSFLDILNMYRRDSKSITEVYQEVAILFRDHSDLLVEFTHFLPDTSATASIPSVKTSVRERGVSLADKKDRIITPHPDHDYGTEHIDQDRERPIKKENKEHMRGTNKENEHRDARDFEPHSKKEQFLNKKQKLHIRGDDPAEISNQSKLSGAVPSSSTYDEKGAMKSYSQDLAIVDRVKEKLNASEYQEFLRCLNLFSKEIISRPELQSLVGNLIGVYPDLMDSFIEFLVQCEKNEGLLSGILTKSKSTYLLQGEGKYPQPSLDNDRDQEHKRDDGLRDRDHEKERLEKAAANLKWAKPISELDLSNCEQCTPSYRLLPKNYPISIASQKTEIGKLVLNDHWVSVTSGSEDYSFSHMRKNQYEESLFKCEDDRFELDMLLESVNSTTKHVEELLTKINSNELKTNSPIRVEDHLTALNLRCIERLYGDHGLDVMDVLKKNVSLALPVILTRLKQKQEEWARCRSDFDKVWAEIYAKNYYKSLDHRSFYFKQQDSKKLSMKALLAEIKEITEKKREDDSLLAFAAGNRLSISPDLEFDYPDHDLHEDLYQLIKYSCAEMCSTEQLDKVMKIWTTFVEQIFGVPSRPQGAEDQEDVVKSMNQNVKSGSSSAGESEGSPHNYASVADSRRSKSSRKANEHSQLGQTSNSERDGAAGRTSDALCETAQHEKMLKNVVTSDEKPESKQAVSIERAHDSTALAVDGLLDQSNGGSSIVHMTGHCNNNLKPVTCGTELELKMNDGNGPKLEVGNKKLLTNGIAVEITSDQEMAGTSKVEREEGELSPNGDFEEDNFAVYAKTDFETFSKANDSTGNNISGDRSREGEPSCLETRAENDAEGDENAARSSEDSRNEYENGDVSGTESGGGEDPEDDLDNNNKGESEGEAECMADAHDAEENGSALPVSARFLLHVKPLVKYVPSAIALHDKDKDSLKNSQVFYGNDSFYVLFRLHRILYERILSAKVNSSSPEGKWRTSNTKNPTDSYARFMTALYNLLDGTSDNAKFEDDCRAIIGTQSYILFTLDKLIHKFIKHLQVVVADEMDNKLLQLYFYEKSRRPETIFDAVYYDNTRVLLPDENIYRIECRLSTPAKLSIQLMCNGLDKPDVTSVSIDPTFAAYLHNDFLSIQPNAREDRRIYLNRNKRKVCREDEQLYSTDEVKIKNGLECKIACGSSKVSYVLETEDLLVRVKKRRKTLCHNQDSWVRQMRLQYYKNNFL
GST-SNL3-PAH (aa 1–390): residues 1-390 of O48686
UniProt Q9XIE1, residues 1-250: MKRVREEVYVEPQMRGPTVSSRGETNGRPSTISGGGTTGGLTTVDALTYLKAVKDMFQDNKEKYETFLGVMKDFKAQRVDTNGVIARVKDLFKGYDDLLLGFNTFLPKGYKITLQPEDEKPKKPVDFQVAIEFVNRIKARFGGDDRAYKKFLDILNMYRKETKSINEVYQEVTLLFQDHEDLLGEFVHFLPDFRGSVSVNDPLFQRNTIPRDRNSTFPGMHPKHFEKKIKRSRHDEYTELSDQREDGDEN
UniProt O04539, residues 1-420: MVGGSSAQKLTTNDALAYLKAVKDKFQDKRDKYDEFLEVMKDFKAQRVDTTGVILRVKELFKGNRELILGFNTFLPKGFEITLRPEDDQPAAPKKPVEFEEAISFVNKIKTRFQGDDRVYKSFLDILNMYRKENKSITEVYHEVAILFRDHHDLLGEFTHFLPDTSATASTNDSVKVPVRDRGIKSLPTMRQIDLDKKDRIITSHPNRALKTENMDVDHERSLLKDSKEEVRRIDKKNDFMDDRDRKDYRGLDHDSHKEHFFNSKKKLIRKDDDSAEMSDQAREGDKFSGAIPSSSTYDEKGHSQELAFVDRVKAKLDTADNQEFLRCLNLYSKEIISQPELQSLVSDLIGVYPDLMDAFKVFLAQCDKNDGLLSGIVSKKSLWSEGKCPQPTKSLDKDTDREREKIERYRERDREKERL

For experiment [1], the target named is T1, SNL1 (SIN3-LIKE 1), full length, fused to the GAL4 binding domain (Arabidopsis thaliana) (UniProt Q9SRH9).
T1 sequence: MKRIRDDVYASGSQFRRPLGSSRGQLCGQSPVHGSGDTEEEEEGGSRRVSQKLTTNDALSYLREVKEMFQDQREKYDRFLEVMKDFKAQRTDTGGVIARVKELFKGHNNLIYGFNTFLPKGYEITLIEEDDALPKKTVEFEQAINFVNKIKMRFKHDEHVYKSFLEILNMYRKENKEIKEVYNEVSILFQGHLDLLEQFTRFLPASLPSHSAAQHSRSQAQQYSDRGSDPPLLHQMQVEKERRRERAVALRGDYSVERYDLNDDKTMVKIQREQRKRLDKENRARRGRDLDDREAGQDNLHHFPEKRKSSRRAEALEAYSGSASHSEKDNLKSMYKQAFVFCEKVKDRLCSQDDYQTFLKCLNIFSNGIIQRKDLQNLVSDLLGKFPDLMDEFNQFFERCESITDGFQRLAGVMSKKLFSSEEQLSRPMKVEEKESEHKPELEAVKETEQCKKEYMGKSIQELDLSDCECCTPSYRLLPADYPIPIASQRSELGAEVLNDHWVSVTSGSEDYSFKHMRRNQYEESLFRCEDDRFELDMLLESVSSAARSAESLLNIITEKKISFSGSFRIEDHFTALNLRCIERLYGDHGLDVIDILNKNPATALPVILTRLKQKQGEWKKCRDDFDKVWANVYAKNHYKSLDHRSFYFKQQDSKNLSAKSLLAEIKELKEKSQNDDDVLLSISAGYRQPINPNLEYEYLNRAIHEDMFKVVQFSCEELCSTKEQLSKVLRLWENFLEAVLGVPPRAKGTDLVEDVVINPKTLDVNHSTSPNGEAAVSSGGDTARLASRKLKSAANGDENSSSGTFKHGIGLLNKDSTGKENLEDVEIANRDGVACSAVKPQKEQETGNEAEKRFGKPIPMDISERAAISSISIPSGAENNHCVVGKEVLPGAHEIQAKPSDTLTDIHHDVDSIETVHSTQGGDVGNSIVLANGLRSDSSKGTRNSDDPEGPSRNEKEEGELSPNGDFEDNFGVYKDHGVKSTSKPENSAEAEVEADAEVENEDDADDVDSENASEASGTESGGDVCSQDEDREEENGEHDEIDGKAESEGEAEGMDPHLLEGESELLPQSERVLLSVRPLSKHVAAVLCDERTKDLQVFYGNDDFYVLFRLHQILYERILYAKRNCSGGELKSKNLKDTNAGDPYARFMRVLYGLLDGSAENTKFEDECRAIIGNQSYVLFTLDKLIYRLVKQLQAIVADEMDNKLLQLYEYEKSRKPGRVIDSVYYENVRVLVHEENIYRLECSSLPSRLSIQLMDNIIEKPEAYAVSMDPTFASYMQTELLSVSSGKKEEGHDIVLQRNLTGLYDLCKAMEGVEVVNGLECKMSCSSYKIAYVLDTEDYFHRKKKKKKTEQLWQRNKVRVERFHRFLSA
Nature of the experiment: two-hybrid; Matchmaker GAL4 two-hybrid system 3, yeast AH109; VAL1 constructs in pGADT7 (AD), SNL constructs in pGBKT7 (BD); growth on medium lacking Trp, Leu, His and Ade, 3-5 d at 30 °C.

For experiment [2], the target named is T2, SNL1-PAH (aa 1–450), fused to the GAL4 binding domain (Arabidopsis thaliana) (UniProt Q9SRH9).
T2 sequence: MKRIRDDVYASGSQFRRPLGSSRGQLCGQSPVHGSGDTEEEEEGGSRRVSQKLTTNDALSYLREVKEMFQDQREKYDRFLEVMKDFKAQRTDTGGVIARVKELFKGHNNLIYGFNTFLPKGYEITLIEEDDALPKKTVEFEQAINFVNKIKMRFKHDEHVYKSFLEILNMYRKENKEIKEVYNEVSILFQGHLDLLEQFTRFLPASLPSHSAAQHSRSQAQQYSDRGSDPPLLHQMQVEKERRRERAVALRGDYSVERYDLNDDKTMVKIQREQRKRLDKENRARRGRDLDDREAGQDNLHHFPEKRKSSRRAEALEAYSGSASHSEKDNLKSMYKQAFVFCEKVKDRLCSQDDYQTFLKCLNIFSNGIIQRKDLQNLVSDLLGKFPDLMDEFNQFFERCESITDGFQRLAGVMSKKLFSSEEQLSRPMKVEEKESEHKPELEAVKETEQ
Described as above.

In experiment [3] the target is SNL3-PAH (aa 1–390), fused to the GAL4 binding domain (Arabidopsis thaliana) (UniProt O48686). Described as above.
The target in experiment [4] is SNL3 (SIN3-LIKE 3), full length, fused to the GAL4 binding domain (Arabidopsis thaliana) (UniProt O48686). Described as above.
Experiment [5] concerns the target GST-SNL5-PAH (aa 1–250) (Arabidopsis thaliana) (UniProt Q9XIE1). Nature of the experiment: pull-down; supernatants of E. coli lysates in PBS pH 7.5 mixed in roughly equal amounts, incubated with glutathione beads or Ni Singarose 6FF overnight at 4 °C, washed five times with PBS; GST fusion held, His fusion detected with anti-His antibody.
In experiment [6] the target is T3, GST-SNL6-PAH (aa 1–300) (Arabidopsis thaliana) (UniProt Q9XIK6).
T3 sequence: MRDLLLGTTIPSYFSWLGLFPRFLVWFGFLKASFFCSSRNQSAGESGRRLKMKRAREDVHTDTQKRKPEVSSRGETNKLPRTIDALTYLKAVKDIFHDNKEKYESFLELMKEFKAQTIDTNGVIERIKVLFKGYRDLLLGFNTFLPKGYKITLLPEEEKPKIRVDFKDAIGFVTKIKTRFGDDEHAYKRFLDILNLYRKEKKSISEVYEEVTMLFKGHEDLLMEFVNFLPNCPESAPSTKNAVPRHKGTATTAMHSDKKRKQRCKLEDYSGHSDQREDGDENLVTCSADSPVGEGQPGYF
The description is as above.

In experiment [7] the target is T4, GST-SNL2-PAH (aa 1–430) (Arabidopsis thaliana) (UniProt Q9LFQ3).
T4 sequence: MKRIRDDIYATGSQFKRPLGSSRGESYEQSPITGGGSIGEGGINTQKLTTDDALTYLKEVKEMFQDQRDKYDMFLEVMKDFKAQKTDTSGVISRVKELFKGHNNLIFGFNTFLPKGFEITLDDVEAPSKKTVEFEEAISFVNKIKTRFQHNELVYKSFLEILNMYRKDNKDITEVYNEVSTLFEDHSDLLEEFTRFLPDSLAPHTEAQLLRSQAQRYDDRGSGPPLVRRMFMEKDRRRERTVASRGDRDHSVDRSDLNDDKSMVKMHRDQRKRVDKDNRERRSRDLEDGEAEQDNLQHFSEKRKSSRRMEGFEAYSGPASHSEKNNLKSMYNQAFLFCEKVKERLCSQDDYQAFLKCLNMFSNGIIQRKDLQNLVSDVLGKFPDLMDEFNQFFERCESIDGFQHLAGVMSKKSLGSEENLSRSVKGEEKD
The experiment is described as above.

In experiment [8] the target is T5, GST-SNL1-PAH (aa 1–450) (Arabidopsis thaliana) (UniProt Q9SRH9).
T5 sequence: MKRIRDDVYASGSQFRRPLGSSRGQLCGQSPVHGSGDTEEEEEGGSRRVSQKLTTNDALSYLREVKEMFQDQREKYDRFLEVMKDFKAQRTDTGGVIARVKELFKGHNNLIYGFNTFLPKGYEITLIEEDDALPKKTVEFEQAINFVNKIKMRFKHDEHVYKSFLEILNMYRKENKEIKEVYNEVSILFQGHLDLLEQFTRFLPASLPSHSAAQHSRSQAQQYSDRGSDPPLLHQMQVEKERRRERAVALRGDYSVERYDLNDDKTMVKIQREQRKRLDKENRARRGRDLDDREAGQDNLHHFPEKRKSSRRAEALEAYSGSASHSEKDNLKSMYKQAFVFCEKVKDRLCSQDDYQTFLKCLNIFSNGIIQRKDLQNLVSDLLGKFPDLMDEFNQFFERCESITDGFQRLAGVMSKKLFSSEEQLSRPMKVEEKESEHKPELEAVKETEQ
The description is as above.

For experiment [9], the target named is GST-SNL4-PAH (aa 1–420) (Arabidopsis thaliana) (UniProt O04539). The experiment is described as above.
The target of experiment [10] is GST-SNL3-PAH (aa 1–390) (Arabidopsis thaliana) (UniProt O48686). The experiment is described as above.

These are yes or no findings as the source states them, for the method shown. For some assays here: In cells and extracts the contact can be indirect. Some binding calls cover weakened binding; strength is not graded here. Where a sequence is shown, tags or fusion partners need not be part of it.

B1: VAL2-CW (aa 437–655), yeast two-hybrid fusion (domain or fragment, UniProt Q5CCK4 437-655)
chain: SSLTSARKRVRNIGTKSKRLLIDSVDVLELKITWEEAQELLRPPQSTKPSIFTLENQDFEEYDEPPVFGKRTLFVSRQTGEQEQWVQCDACGKWRQLPVDILLPPKWSCSDNLLDPGRSSCSAPDELSPREQDTLVRQSKEFKRRRLASSNEKLNQSQDASALNSLGNAGITTTGEQGEITVAATTKHPRHRAGCSCIVCSQPPSGKGKHKPSCTCTVC
On to B1, for which the binding result in [1], in experiment [2], in [3] and in experiment [4] was “no binding” throughout.

B2: VAL2, yeast two-hybrid fusion (protein, UniProt Q5CCK4 1-780)
chain: MESIKVCMNALCGAASTSGEWKKGWPMRSGDLASLCDKCGCAYEQSIFCEVFHAKESGWRECNSCDKRLHCGCIASRFMMELLENGGVTCISCAKKSGLISMNVSHESNGKDFPSFASAEHVGSVLERTNLKHLLHFQRIDPTHSSLQMKQEESLLPSSLDALRHKTERKELSAQPNLSISLGPTLMTSPFHDAAVDDRSKTNSIFQLAPRSRQLLPKPANSAPIAAGMEPSGSLVSQIHVARPPPEGRGKTQLLPRYWPRITDQELLQLSGQYPHLSNSKIIPLFEKVLSASDAGRIGRLVLPKACAEAYFPPISLPEGLPLKIQDIKGKEWVFQFRFWPNNNSRMYVLEGVTPCIQSMQLQAGDTVTFSRTEPEGKLVMGYRKATNSTATQMFKGSSEPNLNMFSNSLNPGCGDINWSKLEKSEDMAKDNLFLQSSLTSARKRVRNIGTKSKRLLIDSVDVLELKITWEEAQELLRPPQSTKPSIFTLENQDFEEYDEPPVFGKRTLFVSRQTGEQEQWVQCDACGKWRQLPVDILLPPKWSCSDNLLDPGRSSCSAPDELSPREQDTLVRQSKEFKRRRLASSNEKLNQSQDASALNSLGNAGITTTGEQGEITVAATTKHPRHRAGCSCIVCSQPPSGKGKHKPSCTCTVCEAVKRRFRTLMLRKRNKGEAGQASQQAQSQSECRDETEVESIPAVELAAGENIDLNSDPGASRVSMMRLLQAAAFPLEAYLKQKAISNTAGEQQSSDMVSTEHGSSSAAQETEKDTTNGAHDPVN
Consider B2, for which the binding result in experiment [1], in experiment [2], in experiment [3] and in [4] was “no binding” in each case.

B3: His-VAL1-CW (aa 458–673) (domain or fragment, UniProt Q8W4L5 458-673)
chain: DDPTRVKEKKRTRTIGAKNKRLLLHSEESMELRLTWEEAQDLLRPSPSVKPTIVVIEEQEIEEYDEPPVFGKRTIVTTKPSGEQERWATCDDCSKWRRLPVDALLSFKWTCIDNVWDVSRCSCSAPEESLKELENVLKVGREHKKRRTGESQAAKSQQEPCGLDALASAAVLGDTIGEPEVATTTRHPRHRAGCSCIVCIQPPSGKGRHKPTCGCT
In the case of B3, the binding entry in experiment [5], in experiment [6], in experiment [7], in experiment [8], in experiment [9] and in experiment [10] was “binds” throughout.
